Reference: patent publication US9085608B2, “Treatment of biofilms” (LYTIX BIOPHARMA AS, priority 2008, dated 2015)
“Also recorded” adds a separate entry of the source. At least one structure is not confirmed: it was looked up by name or label, or the drawing left a doubt.

Test system: six staphylococcal strains (2 S. epidermidis, 2 S. haemolyticus and 2 S. aureus)
Assay: Susceptibility testing under planktonic growth condition, EUCAST breakpoints
Type: cell-based
Conditions: all 6 strains; EUCAST criteria
Description: The six staphylococcal strains (2 S. epidermidis, 2 S. haemolyticus and 2 S. aureus) used in this study were selected based on their previously known biofilm forming capacity (Table 1).
Bacteria were grown overnight at 37° C. in cation adjusted Mueller-Hinton II Broth (MHIIB).
We determined the MICs of oxacillin, gentamicin, tetracycline, vancomycin and linezolid using E-test (AB Biodisk, Solna, Sweden) and MICs of rifampicin using broth microdilution assay. Breakpoints were interpreted according to EUCAST criteria. We selected 3 different SAMPs (Compounds A, B and C; Lytix Biopharma, Tromsø, Norway—see FIG. 1) based on previously known antimicrobial activities, and determined their exact MICs with broth microdilution assay. All 3 SAMPs are tripeptides with two arginine residues providing their cationic moieties (FIG. 1). The lipophilic bulk is provided by a modified tryptophane derivate. The difference between the compounds is the size of the C-terminal modification; Compound A has the smallest and Compound B has the largest C-terminal modification (FIG. 1). The molecular weights of the SAMPs are in the range of 700-800 Dalton.

## CO[C@H]1/C=C/O[C@@]2(C)Oc3c(C)c(O)c4c(O)c(c(/C=N/N5CCN(C)CC5)c(O)c4c3C2=O)NC(=O)/C(C)=C\C=C\[C@H](C)[C@H](O)[C@@H](C)[C@@H](O)[C@@H](C)[C@H](OC(C)=O)[C@@H]1C [RIF, rifampicin]
  susceptibility under planktonic growth: susceptible; also recorded: sensitive
